The list is a part of this screen's results and no random one: its compounds were picked by chemical class. Other doses and runs of a compound may be missing. T/C is the treated group as % of the vehicle group. Where survival is the endpoint, this PubChem deposit counts one and a half times the control or more as active, and values a quarter to a half above the control carry no call in these data; other NCI protocols may use other cut-offs. Some T/C values are marked as having no survivor count here; that says nothing about deaths at the dose. Schedule codes are those of the source, read here as Q, the interval in days (D) or hours (H), X, the number of doses. Some schedule codes hold Z or #, which are not explained here. Additions like (4×) give the number of equal values in this list. Some doses were run more than once; the results are listed from low to high.
Test system: BDF1 mice, L1210 Methyl-GAG-resistant leukemia, survival T/C
Assay: NCI In Vivo Anticancer Drug Screen. Data for tumor model L1210 Leukemia resistant to Methyl-GAG; NSC 32946 (subcutaneous) in B6D2F1 (BDF1) mice
Settings: T/C endpoint: mean survival time, schedule: Q01DX Z (ip), higher T/C = longer survival
Protocol: The antitumor activity of compounds was measured in mice bearing transplantable tumors. Survival or tumor size were measured and the results are expressed as the measurement made in the treated group (T) divided by the measurement made in the vehicle treated control group (C). The tumor model used in this assay is L1210 Leukemia resistant to Methyl-GAG; NSC 32946 (subcutaneous) in B6D2F1 (BDF1) mice

[1] = dose: 1.25 mg/kg/injection, vehicle: carboxymethylcellulose (CMC)
[2] = dose: 2.5 mg/kg/injection, vehicle: carboxymethylcellulose (CMC)
[3] = dose: 5.0 mg/kg/injection, vehicle: carboxymethylcellulose (CMC)
[4] = dose: 10.0 mg/kg/injection, vehicle: carboxymethylcellulose (CMC)

In the case of `O=C(O)CN(CCCl)CCCl`, the T/C (dose: 0.5 mg/kg/injection, vehicle: saline) is reported as 94 % of control [survivor count not shown], the T/C (dose: 1.0 mg/kg/injection, vehicle: saline) is reported as 96 % of control [survivor count not shown] and the T/C (dose: 2.0 mg/kg/injection, vehicle: saline) is reported as 91 % of control [survivor count not shown]. The T/C (dose: 4.0 mg/kg/injection, vehicle: saline) was 94 % of control [survivor count not shown].

In the case of `NC(Cc1cccc(N(CCCl)CCCl)c1)C(=O)O` (stereo not drawn), the T/C (dose: 0.31 mg/kg/injection, vehicle: carboxymethylcellulose (CMC)) is reported as 95 % of control [survivor count not shown], the T/C (dose: 0.63 mg/kg/injection, vehicle: carboxymethylcellulose (CMC)) is reported as 100 % of control [survivor count not shown] and the T/C [1] is reported as 103 % of control [survivor count not shown] (2×). For the same molecule, the T/C [2] was 93 [survivor count not shown], 124 [survivor count not shown], 126 % of control [survivor count not shown] and the T/C [3] was 93 [survivor count not shown] and 103 % of control [survivor count not shown].

In the case of `CC(C(=O)O)N(CCCl)CCCl` (stereo not drawn), the T/C [1] is reported as 89 % of control [survivor count not shown], the T/C [2] is reported as 92 % of control [survivor count not shown] and the T/C [3] is reported as 111 % of control [survivor count not shown]. For the same molecule, the T/C [4] was 91 [survivor count not shown] and 93 % of control [survivor count not shown].

In the case of `ClCCNCCCl`, the T/C (dose: 3.12 mg/kg/injection, vehicle: carboxymethylcellulose (CMC)) is reported as 101 % of control [survivor count not shown], the T/C (dose: 6.25 mg/kg/injection, vehicle: carboxymethylcellulose (CMC)) is reported as 111 % of control [survivor count not shown] and the T/C (dose: 12.5 mg/kg/injection, vehicle: carboxymethylcellulose (CMC)) is reported as 103 % of control [survivor count not shown]. For the same molecule, the T/C (dose: 25.0 mg/kg/injection, vehicle: carboxymethylcellulose (CMC)) was 111 % of control [survivor count not shown] and the T/C (dose: 50.0 mg/kg/injection, vehicle: carboxymethylcellulose (CMC)) was 97 % of control [survivor count not shown].

`ClCCN(CCCl)Cc1nc2ccccc2[nH]1` was tested, and the T/C [1] was 90 % of control [survivor count not shown], the T/C [2] was 90 % of control [survivor count not shown] and the T/C [3] was 92 % of control [survivor count not shown]. The T/C [4] was 97 % of control [survivor count not shown], the T/C (dose: 20.0 mg/kg/injection, vehicle: carboxymethylcellulose (CMC)) was 109 % of control [survivor count not shown] and the T/C (dose: 40.0 mg/kg/injection, vehicle: carboxymethylcellulose (CMC)) was 106 % of control [survivor count not shown].

For `NC(Cc1ccccc1N(CCCl)CCCl)C(=O)O` (stereo not drawn), the T/C (dose: 0.25 mg/kg/injection, vehicle: carboxymethylcellulose (CMC)) was 95 % of control [survivor count not shown], the T/C (dose: 0.5 mg/kg/injection, vehicle: carboxymethylcellulose (CMC)) was 100 [survivor count not shown], 101 [survivor count not shown], 109 % of control [survivor count not shown] and the T/C (dose: 1.0 mg/kg/injection, vehicle: carboxymethylcellulose (CMC)) was 98 [survivor count not shown], 110 [survivor count not shown], 132 % of control [survivor count not shown]. For the same molecule, the T/C (dose: 2.0 mg/kg/injection, vehicle: carboxymethylcellulose (CMC)) was 106 [survivor count not shown], 127 [survivor count not shown], 166 % of control [survivor count not shown].

— PubChem BioAssay AID306 (DTP/NCI, 2004)
